Consider three molecules from PMC6508495, “Members of the abscisic acid co‐receptor PP2C protein family mediate salicylic acid–abscisic acid crosstalk” (Plant Direct, 2017).

Chains of the proteins cited; added tags and fusions are not shown.
UniProt Q8VZS8: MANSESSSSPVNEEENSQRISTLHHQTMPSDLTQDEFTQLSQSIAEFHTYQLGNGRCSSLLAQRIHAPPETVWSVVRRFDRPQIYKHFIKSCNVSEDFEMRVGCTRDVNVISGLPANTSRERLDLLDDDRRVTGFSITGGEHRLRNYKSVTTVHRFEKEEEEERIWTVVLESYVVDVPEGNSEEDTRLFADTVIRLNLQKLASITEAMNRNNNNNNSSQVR
UniProt O49686: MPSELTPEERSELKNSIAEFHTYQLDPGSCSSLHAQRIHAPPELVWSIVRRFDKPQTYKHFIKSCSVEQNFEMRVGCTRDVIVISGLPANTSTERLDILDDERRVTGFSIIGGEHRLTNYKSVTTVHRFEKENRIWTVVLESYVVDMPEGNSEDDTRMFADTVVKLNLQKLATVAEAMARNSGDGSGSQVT
UniProt P49597: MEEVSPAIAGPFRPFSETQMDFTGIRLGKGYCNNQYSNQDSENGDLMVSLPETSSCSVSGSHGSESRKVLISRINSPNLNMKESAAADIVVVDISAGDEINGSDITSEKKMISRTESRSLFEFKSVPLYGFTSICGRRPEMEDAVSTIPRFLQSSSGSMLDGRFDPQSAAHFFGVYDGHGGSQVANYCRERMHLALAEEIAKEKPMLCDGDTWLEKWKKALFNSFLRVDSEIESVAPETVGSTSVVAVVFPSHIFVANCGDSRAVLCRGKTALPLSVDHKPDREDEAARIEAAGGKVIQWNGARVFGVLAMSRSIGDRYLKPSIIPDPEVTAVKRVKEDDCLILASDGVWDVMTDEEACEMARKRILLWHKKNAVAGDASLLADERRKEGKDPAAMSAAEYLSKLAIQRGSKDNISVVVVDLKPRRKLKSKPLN
UniProt O04719: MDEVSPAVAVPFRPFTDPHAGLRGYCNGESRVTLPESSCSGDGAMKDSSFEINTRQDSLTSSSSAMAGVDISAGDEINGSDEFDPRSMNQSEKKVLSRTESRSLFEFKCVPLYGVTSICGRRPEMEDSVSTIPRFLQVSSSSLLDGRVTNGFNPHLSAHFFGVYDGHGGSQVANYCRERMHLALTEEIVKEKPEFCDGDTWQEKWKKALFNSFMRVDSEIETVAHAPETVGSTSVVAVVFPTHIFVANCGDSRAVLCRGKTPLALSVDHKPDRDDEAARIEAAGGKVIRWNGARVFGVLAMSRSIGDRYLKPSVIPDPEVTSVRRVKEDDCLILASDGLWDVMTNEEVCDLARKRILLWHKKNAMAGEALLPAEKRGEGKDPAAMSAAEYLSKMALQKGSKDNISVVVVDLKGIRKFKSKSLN

No constants are given. Whether binding was seen depends on the method and setting. Some entries that bind do so weakly or less than the wild type.

Holding throughout (assay): SPR; Biacore 3000; His6-SUMO-tagged PYL1, PYL2 or PYR1 amine-coupled to a CM5 chip; PP2Cs flowed over in HBS-EP buffer at 30 μl/min in the absence or presence of ABA, SA or ABA+SA; signal of the mock-coupled flow cell subtracted; both purified
Background: SPR reads the build-up and loss of mass on a sensor chip optically.

Assay [1] deals with PYL1, ABA receptor of the PYR/PYL/RCAR family (UniProt Q8VZS8).
Assay [2] deals with T1, PYL2, ABA receptor of the PYR/PYL/RCAR family (UniProt O80992).
T1 sequence: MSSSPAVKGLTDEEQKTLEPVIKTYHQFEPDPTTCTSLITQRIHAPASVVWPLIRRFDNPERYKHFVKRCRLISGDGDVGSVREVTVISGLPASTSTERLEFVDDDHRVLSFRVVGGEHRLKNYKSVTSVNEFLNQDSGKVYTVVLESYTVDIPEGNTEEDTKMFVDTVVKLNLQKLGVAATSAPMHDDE

The target of assay [3] is PYR1 (pyrabactin resistance 1), ABA receptor of the PYR/PYL/RCAR family (UniProt O49686).

On to “ABA‐insensitive 1 (ABI1; At4g26080) (from UniProt P49597 1-434) (enzyme)”, for which the binding entry in assay [1], in assay [2] and in assay [3] was “binds” in each case.
As to “ABA‐insensitive 2 (ABI2; At5g57050) (from UniProt O04719 1-423) (enzyme)”, the binding result in assay [1] and in assay [3] was “binds” each time.

B1: PP2C‐D4 (At3g55050), type 2C protein phosphatase of clade D (enzyme, UniProt Q94CL8 1-384)
chain: MVSTTFRRIVSPCWRPFGIGEDSSPGSDDTNGRLDGLLWYKDSGNHITGEFSMAVVQANNLLEDHSQLESGPISLHESGPEATFVGVYDGHGGPEAARFVNDRLFYNIKRYTSEQRGMSPDVITRGFVATEEEFLGLVQEQWKTKPQIASVGACCLVGIVCNGLLYVANAGDSRVVLGKVANPFKELKAVQLSTEHNASIESVREELRLLHPDDPNIVVLKHKVWRVKGIIQVSRSIGDAYLKRAEFNQEPLLPKFRVPERFEKPIMRAEPTITVHKIHPEDQFLIFASDGLWEHLSNQEAVDIVNSCPRNGVARKLVKAALQEAAKKREMRYSDLEKIERGIRRHFHDDITVIVVFLHATNFATRTPISVKGGGLLSAHNPVL
In the case of B1, the binding result in assay [1], in assay [2] and in assay [3] was “binds” in each case.
